This note sets out measurements from patent US20090275033A1.

Chains of the proteins cited; added tags and fusions are not shown.
UniProt P23760: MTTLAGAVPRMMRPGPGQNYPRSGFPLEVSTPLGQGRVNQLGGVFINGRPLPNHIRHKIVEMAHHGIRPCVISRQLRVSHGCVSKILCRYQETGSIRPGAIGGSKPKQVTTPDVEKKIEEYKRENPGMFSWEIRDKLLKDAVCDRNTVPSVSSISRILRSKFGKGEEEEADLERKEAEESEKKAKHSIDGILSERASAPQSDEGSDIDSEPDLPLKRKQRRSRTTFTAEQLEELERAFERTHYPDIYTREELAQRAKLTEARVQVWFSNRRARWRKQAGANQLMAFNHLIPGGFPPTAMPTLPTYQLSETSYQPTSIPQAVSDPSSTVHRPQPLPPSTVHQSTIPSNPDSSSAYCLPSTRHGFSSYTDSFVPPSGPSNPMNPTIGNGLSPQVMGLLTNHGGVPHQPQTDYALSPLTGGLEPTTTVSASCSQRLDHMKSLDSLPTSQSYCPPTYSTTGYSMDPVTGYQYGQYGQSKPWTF

For assay [1], the target named is T1, BNIPXL-beta (BCl2/adenovirus E1B 19 kDa protein-interacting protein 2) (human) (UniProt Q8WUY3).
T1 sequence: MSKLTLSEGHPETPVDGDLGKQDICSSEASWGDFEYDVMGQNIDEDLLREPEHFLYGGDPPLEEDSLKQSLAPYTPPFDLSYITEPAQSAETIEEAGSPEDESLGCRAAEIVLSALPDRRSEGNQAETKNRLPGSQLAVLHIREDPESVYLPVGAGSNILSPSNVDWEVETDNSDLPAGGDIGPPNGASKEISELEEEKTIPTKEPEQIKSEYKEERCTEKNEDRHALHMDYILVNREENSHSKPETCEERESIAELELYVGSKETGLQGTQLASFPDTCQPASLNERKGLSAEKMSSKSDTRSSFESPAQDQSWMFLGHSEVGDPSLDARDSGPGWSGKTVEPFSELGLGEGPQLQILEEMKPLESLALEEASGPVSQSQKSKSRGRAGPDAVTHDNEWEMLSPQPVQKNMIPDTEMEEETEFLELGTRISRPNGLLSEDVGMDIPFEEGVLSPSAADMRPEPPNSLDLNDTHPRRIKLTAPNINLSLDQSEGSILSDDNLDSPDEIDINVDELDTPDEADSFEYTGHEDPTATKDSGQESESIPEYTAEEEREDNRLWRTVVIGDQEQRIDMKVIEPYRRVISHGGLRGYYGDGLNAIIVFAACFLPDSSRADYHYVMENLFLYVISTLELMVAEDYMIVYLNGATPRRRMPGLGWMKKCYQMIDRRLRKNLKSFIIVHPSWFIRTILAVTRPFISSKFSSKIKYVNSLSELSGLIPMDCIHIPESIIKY
Briefly: yeast two-hybrid.

In assay [2] the target is T1, BNIPXL-beta (BCl2/adenovirus E1B 19 kDa protein-interacting protein 2) (human). Kind of assay: yeast two-hybrid, DDX31 bait against human melanocyte prey library; global biological score PIM (PBS class).
For a further assay, the target named is PAX3 (human) (UniProt P23760). Kind of assay: yeast two-hybrid.

No constants are given. Whether binding was seen depends on the method and setting. Some entries that bind do so weakly or less than the wild type.

B1: DDX31 long form (full-length variant 1, amino acids 1-851) (enzyme)
chain: MAPDLASQRHSESFPSVNSRPNVILPGREGRREGLPPGGGTRGSLVPTRPVPPSPAPLGTSPYSWSRSGPGRGGGAGSSRVPRGVPGPAVCAPGSLLHHASPTQTMAAADGSLFDNPRTFSRRPPAQASRQAKATKRKYQASSEAPPAKRRNETSFLPAKKTSVKETQRTFKGNAQKMFSPKKHSVSTSDRNQEERQCIKTSSLFKNNPDIPELHRPVVKQVQEKVFTSAAFHELGLHPHLISTINTVLKMSSMTSVQKQSIPVLLEGRDALVRSQTGSGKTLAYCIPVVQSLQAMESKIQRSDGPYALVLVPTRELALQSFDTVQKLLKPFTWIVPGVLMGGEKRKSEKARLRKGINILISTPGRLVDHIKSTKNIHFSRLRWLVFDEADRILDLGFEKDITVILNAVNAECQKRQNVLLSATLTEGVTRLADISLHDPVSISVLDKSHDQLNPKDKAVQEVCPPPAGDKLDSFAIPESLKQHVTVVPSKLRLVCLAAFILQKCKFEEDQKMVVFFSSCELVEFHYSLFLQTLLSSSGAPASGQLPSASMRLKFLRLHGGMEQEERTAVFQEFSHSRRGVLLCTDVAARGLDLPQVTWIVQYNAPSSPAEYIHRIGRTARIGCHGSSLLILAPSEAEYVNSLASHKINVSEIKMEDILCVLTRDDCFKGKRWGAQKSHAVGPQEIRERATVLQTVFEDYVHSSERRVSWAKKALQSFIQAYATYPRELKHIFHVRSLHLGHVAKSFGLRDAPRNLSALTRKKRKAHVKRPDLHKKTQSKHSLAEILRSEYSSGMEADIAKVKKQNAPGEPGGRPLQHSLQPTPCFGRGKTLKWRKTQKGVQRDSKTSQKV
Consider B1, for which the binding result in assay [1] and in assay [2] was “binds” in each case.

B2: GTF3C4 (protein, human, UniProt Q9UKN8 1-822, looked up)
chain: MNTADQARVGPADDGPAPSGEEEGEGGGEAGGKEPAADAAPGPSAAFRLMVTRREPAVKLQYAVSGLEPLAWSEDHRVSVSTARSIAVLELICDVHNPGQDLVIHRTSVPAPLNSCLLKVGSKTEVAECKEKFAASKDPTVSQTFMLDRVFNPEGKALPPMRGFKYTSWSPMGCDANGRCLLAALTMDNRLTIQANLNRLQWVQLVDLTEIYGERLYETSYRLSKNEAPEGNLGDFAEFQRRHSMQTPVRMEWSGICTTQQVKHNNECRDVGSVLLAVLFENGNIAVWQFQLPFVGKESISSCNTIESGITSPSVLFWWEYEHNNRKMSGLIVGSAFGPIKILPVNLKAVKGYFTLRQPVILWKEMDQLPVHSIKCVPLYHPYQKCSCSLVVAARGSYVFWCLLLISKAGLNVHNSHVTGLHSLPIVSMTADKQNGTVYTCSSDGKVRQLIPIFTDVALKFEHQLIKLSDVFGSVRTHGIAVSPCGAYLAIITTEGMINGLHPVNKNYQVQFVTLKTFEEAAAQLLESSVQNLFKQVDLIDLVRWKILKDKHIPQFLQEALEKKIESSGVTYFWRFKLFLLRILYQSMQKTPSEALWKPTHEDSKILLVDSPGMGNADDEQQEEGTSSKQVVKQGLQERSKEGDVEEPTDDSLPTTGDAGGREPMEEKLLEIQGKIEAVEMHLTREHMKRVLGEVYLHTWITENTSIPTRGLCNFLMSDEEYDDRTARVLIGHISKKMNKQTFPEHCSLCKEILPFTDRKQAVCSNGHIWLRCFLTYQSCQSLIYRRCLLHDSIARHPAPEDPDWIKRLLQSPCPFCDSPVF
On to B2, for which, in the assay with PAX3 (human), the binding entry is listed as “binds”.
